This is an account of results in PubChem BioAssay AID304 (DTP/NCI, 2004).

The list is a part of this screen's results and no random one: its compounds were picked by chemical class. Other doses and runs of a compound may be missing. T/C: endpoint of the treated group in % of that of the vehicle group. Where survival is the endpoint, this PubChem deposit counts one and a half times the control or more as active, and values a quarter to a half above the control carry no call in these data; other NCI protocols may use other cut-offs. Some T/C values are marked as having no survivor count here; that says nothing about deaths at the dose. Schedule codes are those of the source, taken here to give the interval after Q, in days (D) or hours (H), and the number of doses after X. Some doses were run more than once; the results are listed from low to high.

The assay has as its system Lymphosarcoma Mecca ip in C3AKF1 mice, survival T/C%. Nature of the assay: NCI In Vivo Anticancer Drug Screen. Data for tumor model Lymphosarcoma Mecca (intraperitoneal) in C3AKF1 (CHKRF1) mice. To be noted: T/C endpoint: survival time, mean or median, schedule: Q01DX010 (ip), vehicle: saline, higher T/C = longer survival. Here is the method:
The antitumor activity of compounds was measured in mice bearing transplantable tumors. Survival or tumor size were measured and the results are expressed as the measurement made in the treated group (T) divided by the measurement made in the vehicle treated control group (C). The tumor model used in this assay is Lymphosarcoma Mecca (intraperitoneal) in C3AKF1 (CHKRF1) mice

As to `CN(CCCl)CCCl`, the T/C is 122 [survivor count not shown] and 270 % of control [survivor count not shown] (dose: 0.06 mg/kg/injection); 113 [survivor count not shown], 125 [survivor count not shown], 145 [survivor count not shown], 150 % of control [survivor count not shown] (dose: 0.13 mg/kg/injection); 125 [survivor count not shown], 143 [survivor count not shown], 154 [survivor count not shown], 195 % of control [survivor count not shown] (dose: 0.25 mg/kg/injection); 148 [survivor count not shown], 193 [survivor count not shown], 240 [survivor count not shown], 390 % of control [survivor count not shown] (dose: 0.5 mg/kg/injection); 86 [survivor count not shown] and 109 % of control [survivor count not shown] (dose: 1.0 mg/kg/injection).
